Laboratory results: PubChem BioAssay AID1224830 (NIAID, 2016)

- Screen: 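Regulators of TLR4 signalling towards TNF-alpha in macrophage-like cells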 (primary screen)
- System: human THP-1 monocytic leukaemia cells, TNF dual-luciferase reporter clone, PMA-differentiated to macrophage-like cells
- Knock-down reagent: siRNA pool against human genes, 50 nM
- Timing: LPS for 4 h, given about 3 days after siRNA transfection
- Treatment: bacterial LPS (TLR4 ligand), 10 ng/ml
- Measured: 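Ratio of firefly to renilla light, scaled to the plate median and expressed as a robust z-score per replicate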
- Reading the numbers: TNF reporter robust z-score: higher = stronger TNF reporter response to LPS
- Hit rule: 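a well is active when its z-score exceeds 2.8 or falls below -1.5; control wells carry no call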
Shown is an unselected part of about 18,000 reagents. About 2,900 of them (16%) count as active. 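Calls are made per well; low scores hint the gene aids the LPS response, high scores that it dampens it.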 Repeated entries: four replicate wells of each siRNA pool.

gene | TNF reporter robust z-score | call
PCDH17 (protocadherin 17) | -0.71 | inactive
PCDH17 (protocadherin 17) | 2.53 | inactive
PCDH17 (protocadherin 17) | 2.18 | inactive
PCDH17 (protocadherin 17) | 1.8 | inactive
USH2A (usherin) | 0.46 | inactive
USH2A (usherin) | 0.87 | inactive
USH2A (usherin) | -0.77 | inactive
USH2A (usherin) | -0.16 | inactive
APOBEC2 (apolipoprotein B mRNA editing enzyme catalytic subunit 2) | -0.9 | inactive
APOBEC2 (apolipoprotein B mRNA editing enzyme catalytic subunit 2) | -0.42 | inactive
APOBEC2 (apolipoprotein B mRNA editing enzyme catalytic subunit 2) | -0.52 | inactive
APOBEC2 (apolipoprotein B mRNA editing enzyme catalytic subunit 2) | -0.09 | inactive
DMGDH (dimethylglycine dehydrogenase) | -1.64 | active
DMGDH (dimethylglycine dehydrogenase) | -1.23 | inactive
DMGDH (dimethylglycine dehydrogenase) | -0.89 | inactive
DMGDH (dimethylglycine dehydrogenase) | -1.19 | inactive
RNF186 (ring finger protein 186) | -0.73 | inactive
RNF186 (ring finger protein 186) | 0.09 | inactive
RNF186 (ring finger protein 186) | -0.01 | inactive
RNF186 (ring finger protein 186) | 0.38 | inactive
CCDC112 (coiled-coil domain containing 112) | 1.18 | inactive
CCDC112 (coiled-coil domain containing 112) | 0.59 | inactive
CCDC112 (coiled-coil domain containing 112) | 1.28 | inactive
CCDC112 (coiled-coil domain containing 112) | -0.52 | inactive
ELOB (elongin B) | 2.64 | inactive
ELOB (elongin B) | 1.24 | inactive
ELOB (elongin B) | 3.12 | active
ELOB (elongin B) | 2.77 | inactive
CYB5A (cytochrome b5 type A) | 1.98 | inactive
CYB5A (cytochrome b5 type A) | 3.05 | active
CYB5A (cytochrome b5 type A) | 2.35 | inactive
CYB5A (cytochrome b5 type A) | 3.83 | active
TMEM198 (transmembrane protein 198) | 1.4 | inactive
TMEM198 (transmembrane protein 198) | 2.07 | inactive
TMEM198 (transmembrane protein 198) | 2.41 | inactive
TMEM198 (transmembrane protein 198) | 2.21 | inactive
PLCD3 (phospholipase C delta 3) | -0.91 | inactive
PLCD3 (phospholipase C delta 3) | -0.21 | inactive
PLCD3 (phospholipase C delta 3) | -0.75 | inactive
PLCD3 (phospholipase C delta 3) | -0.46 | inactive
SLC25A33 | 1.13 | inactive
SLC25A33 | 2.8 | active
SLC25A33 | 0.62 | inactive
SLC25A33 | 2.88 | active
PTDSS2 (phosphatidylserine synthase 2) | -0.53 | inactive
PTDSS2 (phosphatidylserine synthase 2) | -0.29 | inactive
PTDSS2 (phosphatidylserine synthase 2) | -0.9 | inactive
PTDSS2 (phosphatidylserine synthase 2) | 0.5 | inactive
CYP27B1 (cytochrome P450 family 27 subfamily B member 1) | -1.08 | inactive
CYP27B1 (cytochrome P450 family 27 subfamily B member 1) | -1.28 | inactive
CYP27B1 (cytochrome P450 family 27 subfamily B member 1) | -1.21 | inactive
CYP27B1 (cytochrome P450 family 27 subfamily B member 1) | -0.59 | inactive
JUNB (JunB proto-oncogene, AP-1 transcription factor subunit) | 0.9 | inactive
JUNB (JunB proto-oncogene, AP-1 transcription factor subunit) | 3.59 | active
JUNB (JunB proto-oncogene, AP-1 transcription factor subunit) | 1.46 | inactive
JUNB (JunB proto-oncogene, AP-1 transcription factor subunit) | 3.3 | active
RBMY1E (RNA binding motif protein Y-linked family 1 member E) | 0.3 | inactive
RBMY1E (RNA binding motif protein Y-linked family 1 member E) | 0.78 | inactive
RBMY1E (RNA binding motif protein Y-linked family 1 member E) | 1.07 | inactive
RBMY1E (RNA binding motif protein Y-linked family 1 member E) | 0.41 | inactive
NECAB3 (N-terminal EF-hand calcium binding protein 3) | 3.13 | active
NECAB3 (N-terminal EF-hand calcium binding protein 3) | 4.09 | active
NECAB3 (N-terminal EF-hand calcium binding protein 3) | 0.2 | inactive
NECAB3 (N-terminal EF-hand calcium binding protein 3) | 1.78 | inactive

Next part, starting with the last 7 of the part before.
gene | TNF reporter robust z-score | call
RBMY1E (RNA binding motif protein Y-linked family 1 member E) | 0.78 | inactive
RBMY1E (RNA binding motif protein Y-linked family 1 member E) | 1.07 | inactive
RBMY1E (RNA binding motif protein Y-linked family 1 member E) | 0.41 | inactive
NECAB3 (N-terminal EF-hand calcium binding protein 3) | 3.13 | active
NECAB3 (N-terminal EF-hand calcium binding protein 3) | 4.09 | active
NECAB3 (N-terminal EF-hand calcium binding protein 3) | 0.2 | inactive
NECAB3 (N-terminal EF-hand calcium binding protein 3) | 1.78 | inactive
ZNF662 (zinc finger protein 662) | 1.47 | inactive
ZNF662 (zinc finger protein 662) | 0.96 | inactive
ZNF662 (zinc finger protein 662) | 0.17 | inactive
ZNF662 (zinc finger protein 662) | 2.3 | inactive
NADK2 (NAD kinase 2, mitochondrial) | 0.95 | inactive
NADK2 (NAD kinase 2, mitochondrial) | -0.66 | inactive
NADK2 (NAD kinase 2, mitochondrial) | -0.63 | inactive
NADK2 (NAD kinase 2, mitochondrial) | 0.05 | inactive
ASH1L (ASH1 like histone lysine methyltransferase) | -1.07 | inactive
ASH1L (ASH1 like histone lysine methyltransferase) | -1.5 | inactive
ASH1L (ASH1 like histone lysine methyltransferase) | -1.51 | active
ASH1L (ASH1 like histone lysine methyltransferase) | -1.01 | inactive
MASTL (microtubule associated serine/threonine kinase like) | -0.79 | inactive
MASTL (microtubule associated serine/threonine kinase like) | -0.85 | inactive
MASTL (microtubule associated serine/threonine kinase like) | -1.5 | inactive
MASTL (microtubule associated serine/threonine kinase like) | -0.82 | inactive
OSBPL5 (oxysterol binding protein like 5) | -0.94 | inactive
OSBPL5 (oxysterol binding protein like 5) | -0.74 | inactive
OSBPL5 (oxysterol binding protein like 5) | -1.13 | inactive
OSBPL5 (oxysterol binding protein like 5) | -0.25 | inactive
NLK (nemo like kinase) | -0.62 | inactive
NLK (nemo like kinase) | -0.53 | inactive
NLK (nemo like kinase) | -0.6 | inactive
NLK (nemo like kinase) | 0.2 | inactive
IGFBP3 (insulin like growth factor binding protein 3) | -1.53 | active
IGFBP3 (insulin like growth factor binding protein 3) | -1.02 | inactive
IGFBP3 (insulin like growth factor binding protein 3) | -0.69 | inactive
IGFBP3 (insulin like growth factor binding protein 3) | -1.7 | active
PCDHB11 (protocadherin beta 11) | 0.14 | inactive
PCDHB11 (protocadherin beta 11) | 1.43 | inactive
PCDHB11 (protocadherin beta 11) | 0.29 | inactive
PCDHB11 (protocadherin beta 11) | 1.63 | inactive
TM4SF19 (transmembrane 4 L six family member 19) | -0.7 | inactive
TM4SF19 (transmembrane 4 L six family member 19) | -1.26 | inactive
TM4SF19 (transmembrane 4 L six family member 19) | -0.4 | inactive
TM4SF19 (transmembrane 4 L six family member 19) | -0.63 | inactive
RELB (RELB proto-oncogene, NF-kB subunit) | -0.53 | inactive
RELB (RELB proto-oncogene, NF-kB subunit) | -0.9 | inactive
RELB (RELB proto-oncogene, NF-kB subunit) | -0.87 | inactive
RELB (RELB proto-oncogene, NF-kB subunit) | -0.46 | inactive
B9D2 (B9 domain containing 2) | 0.82 | inactive
B9D2 (B9 domain containing 2) | 1.07 | inactive
B9D2 (B9 domain containing 2) | 1.5 | inactive
B9D2 (B9 domain containing 2) | 1.76 | inactive
ACTG2 (actin gamma 2, smooth muscle) | 0.73 | inactive
ACTG2 (actin gamma 2, smooth muscle) | 1.54 | inactive
ACTG2 (actin gamma 2, smooth muscle) | 0.55 | inactive
ACTG2 (actin gamma 2, smooth muscle) | -0.44 | inactive
